The experiment concerns BDF1 mice, Friend leukemia sc, tumor weight T/C. Description: NCI In Vivo Anticancer Drug Screen. Data for tumor model Friend Virus Leukemia (Solid) (subcutaneous) in B6D2F1 (BDF1) mice. Conditions: T/C endpoint: mean tumor weight, schedule: Q01DX011 (ip), evaluation day not shown, higher T/C = larger tumour. How it is done: The antitumor activity of compounds was measured in mice bearing transplantable tumors. Survival or tumor size were measured and the results are expressed as the measurement made in the treated group (T) divided by the measurement made in the vehicle treated control group (C). The tumor model used in this assay is Friend Virus Leukemia (Solid) (subcutaneous) in B6D2F1 (BDF1) mice

Where [1] appears, read: dose: 12.5 mg/kg/injection, vehicle: carboxymethylcellulose (CMC).
Setting [2] is: dose: 25.0 mg/kg/injection, vehicle: carboxymethylcellulose (CMC).
[3] abbreviates: dose: 2.0 mg/kg/injection, vehicle: carboxymethylcellulose (CMC).
The mark [4] stands for this setting: dose: 2.5 mg/kg/injection, vehicle: carboxymethylcellulose (CMC).
Setting [5] is: dose: 3.0 mg/kg/injection, vehicle: carboxymethylcellulose (CMC).
The mark [6] stands for this setting: dose: 1.0 mg/kg/injection, vehicle: carboxymethylcellulose (CMC).
Setting [7] is: dose: 5.0 mg/kg/injection, vehicle: carboxymethylcellulose (CMC).
Setting [8] is: dose: 10.0 mg/kg/injection, vehicle: carboxymethylcellulose (CMC).

The list does not hold the whole screen: it gathers some chemical classes. Other doses and runs of a compound may be missing. T/C is the treated group as % of the vehicle group. Some entries show no survivor count and are marked so; the dose need not have been tolerated. Schedule codes are those of the source, taken here to give the interval after Q, in days (D) or hours (H), and the number of doses after X. Some doses were run more than once; the values are given in rising order.

For the compound `ClCCN(CCCl)Cc1nc2cc(Cl)c(Cl)cc2[nH]1`, the T/C was 116 % of control [survivor count not shown] under setting [1]; 73 % of control [survivor count not shown] under setting [2]; 63 [survivor count not shown] and 101 % of control [survivor count not shown] (dose: 50.0 mg/kg/injection, vehicle: carboxymethylcellulose (CMC)); 56 % of control [survivor count not shown] (dose: 100.0 mg/kg/injection, vehicle: carboxymethylcellulose (CMC)).
On to `NC(Cc1cccc(N(CCCl)CCCl)c1)C(=O)O` (centres undefined), for which the T/C was 55 % of control [survivor count not shown] under setting [3], 48 % of control [survivor count not shown] under setting [4] and 17 % of control [survivor count not shown] under setting [5].
For the compound `O=C(O)C(=O)Cc1ccc(N(CCCl)CCCl)cc1`, the T/C under setting [6] is 95 % of control [survivor count not shown]; the T/C under setting [5] was 90 % of control [survivor count not shown]; the T/C (dose: 6.0 mg/kg/injection, vehicle: carboxymethylcellulose (CMC)) was 52 [survivor count not shown] and 60 % of control [survivor count not shown]; the T/C (dose: 12.0 mg/kg/injection, vehicle: carboxymethylcellulose (CMC)) was 39 [survivor count not shown] and 69 % of control [survivor count not shown]; the T/C under setting [2] was 26 % of control [survivor count not shown].
As to `Oc1c(SCCCl)c(SCCCl)c(O)c(SCCCl)c1SCCCl`, the T/C is, setting by setting: (dose: 63.0 mg/kg/injection, vehicle: carboxymethylcellulose (CMC)) 101 % of control [survivor count not shown]; (dose: 125.0 mg/kg/injection, vehicle: carboxymethylcellulose (CMC)) 73 % of control [survivor count not shown]; (dose: 250.0 mg/kg/injection, vehicle: carboxymethylcellulose (CMC)) 97 % of control [survivor count not shown]; (dose: 500.0 mg/kg/injection, vehicle: carboxymethylcellulose (CMC)) 83 % of control [survivor count not shown].
As for `ClCCN(CCCl)Cc1nc2ccc(Cl)cc2[nH]1`, the T/C is, setting by setting: (dose: 6.25 mg/kg/injection, vehicle: carboxymethylcellulose (CMC)) 147 % of control [survivor count not shown]; under setting [1], 78 % of control [survivor count not shown]; under setting [2], 55 % of control [survivor count not shown].
Take `ClCCN(CCCl)Cc1nc2ccccc2[nH]1`: the T/C was 131 % of control [survivor count not shown] (dose: 1.87 mg/kg/injection, vehicle: saline); 108 % of control [survivor count not shown] (dose: 2.5 mg/kg/injection, vehicle: saline); 86 % of control [survivor count not shown] (dose: 3.75 mg/kg/injection, vehicle: saline); 83 % of control [survivor count not shown] (dose: 5.0 mg/kg/injection, vehicle: saline); 30 % of control [survivor count not shown] (dose: 7.5 mg/kg/injection, vehicle: carboxymethylcellulose (CMC)).
`CC(C(=O)O)N(CCCl)CCCl` (centres undefined): the T/C by setting is: (dose: 0.5 mg/kg/injection, vehicle: carboxymethylcellulose (CMC)) 108 % of control [survivor count not shown]; under setting [6], 125 % of control [survivor count not shown]; under setting [3], 131 % of control [survivor count not shown]; (dose: 4.2 mg/kg/injection, vehicle: carboxymethylcellulose (CMC)) 107 % of control [survivor count not shown].
On to `Oc1ccc(Cl)cc1CN(CCCl)CCCl`, for which the T/C is 106 % of control [survivor count not shown] under setting [4]; 82 % of control [survivor count not shown] under setting [7]; 60 [survivor count not shown] and 74 % of control [survivor count not shown] under setting [8]; 55 % of control [survivor count not shown] (dose: 20.0 mg/kg/injection, vehicle: carboxymethylcellulose (CMC)).
In the case of `ClCCNCCCl`, the T/C by setting is: (dose: 25.0 mg/kg/injection, vehicle: saline) 201 % of control [survivor count not shown]; (dose: 37.5 mg/kg/injection, vehicle: saline) 132 % of control [survivor count not shown]; (dose: 50.0 mg/kg/injection, vehicle: saline) 13 [survivor count not shown] and 55 % of control [survivor count not shown]; (dose: 75.0 mg/kg/injection, vehicle: saline) 76 % of control [survivor count not shown].
With `O=C(O)CN(CCCl)CCCl`, the T/C was 92 % of control [survivor count not shown] (dose: 0.9 mg/kg/injection, vehicle: saline); 87 % of control [survivor count not shown] (dose: 1.25 mg/kg/injection, vehicle: carboxymethylcellulose (CMC)); 127 % of control [survivor count not shown] (dose: 1.75 mg/kg/injection, vehicle: saline); 77 % of control [survivor count not shown] under setting [4]; 100 % of control [survivor count not shown] (dose: 3.5 mg/kg/injection, vehicle: saline); 68 % of control [survivor count not shown] under setting [7]. The T/C is, setting by setting: (dose: 7.0 mg/kg/injection, vehicle: saline) 58 % of control [survivor count not shown]; under setting [8], 60 % of control [survivor count not shown].
